From article PMC2739719
Results are given in words; binding and its absence hold for the method and conditions named. Binding seen in cells or lysates may run through a third protein. A yes stands for co-enrichment or nearness to the bait. Other partners may have been found. Tags and fused reporters may be left off the sequences shown.

By UniProt entry, the sequences of proteins in these tests, tags left out.
UniProt P13647: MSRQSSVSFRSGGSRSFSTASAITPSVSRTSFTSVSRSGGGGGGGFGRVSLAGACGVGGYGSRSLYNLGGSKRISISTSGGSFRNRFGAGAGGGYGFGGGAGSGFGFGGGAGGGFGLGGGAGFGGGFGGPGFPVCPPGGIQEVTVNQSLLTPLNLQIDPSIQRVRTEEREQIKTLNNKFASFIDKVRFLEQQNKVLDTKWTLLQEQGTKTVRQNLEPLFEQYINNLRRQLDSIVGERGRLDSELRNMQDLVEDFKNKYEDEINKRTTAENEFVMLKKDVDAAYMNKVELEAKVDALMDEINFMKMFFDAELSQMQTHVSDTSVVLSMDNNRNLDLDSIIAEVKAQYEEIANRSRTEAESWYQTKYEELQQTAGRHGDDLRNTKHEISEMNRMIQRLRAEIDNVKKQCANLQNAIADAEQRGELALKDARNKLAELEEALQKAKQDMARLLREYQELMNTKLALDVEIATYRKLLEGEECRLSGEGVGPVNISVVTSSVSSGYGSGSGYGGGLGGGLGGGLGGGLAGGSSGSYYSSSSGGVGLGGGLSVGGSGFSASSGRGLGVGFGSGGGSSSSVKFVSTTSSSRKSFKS
UniProt P02538: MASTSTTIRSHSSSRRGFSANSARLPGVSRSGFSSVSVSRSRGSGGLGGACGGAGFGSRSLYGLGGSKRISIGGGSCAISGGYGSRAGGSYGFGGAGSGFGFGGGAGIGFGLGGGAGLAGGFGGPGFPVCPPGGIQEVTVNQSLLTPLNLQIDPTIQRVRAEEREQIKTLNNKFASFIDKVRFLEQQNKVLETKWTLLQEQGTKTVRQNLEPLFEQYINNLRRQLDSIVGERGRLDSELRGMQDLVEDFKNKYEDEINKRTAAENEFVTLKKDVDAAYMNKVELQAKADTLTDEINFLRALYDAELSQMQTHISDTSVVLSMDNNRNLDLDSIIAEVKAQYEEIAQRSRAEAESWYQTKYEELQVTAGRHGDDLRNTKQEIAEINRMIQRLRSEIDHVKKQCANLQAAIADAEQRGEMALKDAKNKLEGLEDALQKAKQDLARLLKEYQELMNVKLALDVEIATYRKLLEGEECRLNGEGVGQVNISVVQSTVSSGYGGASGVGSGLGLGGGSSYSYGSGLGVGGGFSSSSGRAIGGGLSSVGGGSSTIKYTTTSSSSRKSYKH
UniProt Q96KQ7: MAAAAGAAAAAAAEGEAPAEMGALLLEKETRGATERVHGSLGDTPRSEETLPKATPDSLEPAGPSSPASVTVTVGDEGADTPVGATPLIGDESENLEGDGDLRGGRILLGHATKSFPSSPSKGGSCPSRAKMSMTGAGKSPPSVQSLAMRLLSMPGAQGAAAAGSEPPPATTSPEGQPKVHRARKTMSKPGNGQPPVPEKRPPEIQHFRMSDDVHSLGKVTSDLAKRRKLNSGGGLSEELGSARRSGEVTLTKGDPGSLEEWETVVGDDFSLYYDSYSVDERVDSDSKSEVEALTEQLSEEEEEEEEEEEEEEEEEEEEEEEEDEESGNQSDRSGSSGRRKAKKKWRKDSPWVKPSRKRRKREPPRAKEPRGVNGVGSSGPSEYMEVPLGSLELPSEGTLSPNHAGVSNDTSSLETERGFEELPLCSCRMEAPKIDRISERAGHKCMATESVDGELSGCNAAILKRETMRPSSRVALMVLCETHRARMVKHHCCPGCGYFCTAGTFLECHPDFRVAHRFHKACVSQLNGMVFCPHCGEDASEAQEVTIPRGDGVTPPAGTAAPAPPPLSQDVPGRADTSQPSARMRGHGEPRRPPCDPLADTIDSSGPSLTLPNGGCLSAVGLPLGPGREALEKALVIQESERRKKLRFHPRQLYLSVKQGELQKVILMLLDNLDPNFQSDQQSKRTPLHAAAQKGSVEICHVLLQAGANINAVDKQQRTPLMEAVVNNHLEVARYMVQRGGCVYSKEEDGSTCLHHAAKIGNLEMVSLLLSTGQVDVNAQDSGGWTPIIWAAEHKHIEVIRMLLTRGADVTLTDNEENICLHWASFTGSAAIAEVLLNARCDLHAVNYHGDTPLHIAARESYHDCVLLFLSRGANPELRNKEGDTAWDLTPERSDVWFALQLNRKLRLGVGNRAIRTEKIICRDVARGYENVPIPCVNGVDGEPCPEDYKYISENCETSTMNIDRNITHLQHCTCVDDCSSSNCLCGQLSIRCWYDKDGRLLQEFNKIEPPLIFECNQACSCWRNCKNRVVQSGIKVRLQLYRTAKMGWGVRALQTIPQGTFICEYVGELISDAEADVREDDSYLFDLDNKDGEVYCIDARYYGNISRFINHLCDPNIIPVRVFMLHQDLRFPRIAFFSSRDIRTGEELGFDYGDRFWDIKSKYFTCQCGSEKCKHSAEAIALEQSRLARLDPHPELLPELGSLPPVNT
UniProt P20700: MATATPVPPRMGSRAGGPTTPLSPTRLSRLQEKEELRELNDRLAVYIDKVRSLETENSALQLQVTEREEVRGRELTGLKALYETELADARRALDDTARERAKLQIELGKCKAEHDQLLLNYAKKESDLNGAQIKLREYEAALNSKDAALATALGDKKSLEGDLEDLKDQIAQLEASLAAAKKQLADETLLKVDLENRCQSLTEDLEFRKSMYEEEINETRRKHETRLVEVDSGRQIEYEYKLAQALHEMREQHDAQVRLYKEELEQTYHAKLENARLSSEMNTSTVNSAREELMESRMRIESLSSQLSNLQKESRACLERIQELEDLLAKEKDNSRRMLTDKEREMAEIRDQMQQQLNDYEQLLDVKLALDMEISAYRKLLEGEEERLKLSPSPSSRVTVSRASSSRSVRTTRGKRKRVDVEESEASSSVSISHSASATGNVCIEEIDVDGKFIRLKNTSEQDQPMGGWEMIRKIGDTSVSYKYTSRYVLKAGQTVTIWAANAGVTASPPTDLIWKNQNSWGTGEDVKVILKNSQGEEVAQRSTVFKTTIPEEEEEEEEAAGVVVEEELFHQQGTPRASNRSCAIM
UniProt Q969G3: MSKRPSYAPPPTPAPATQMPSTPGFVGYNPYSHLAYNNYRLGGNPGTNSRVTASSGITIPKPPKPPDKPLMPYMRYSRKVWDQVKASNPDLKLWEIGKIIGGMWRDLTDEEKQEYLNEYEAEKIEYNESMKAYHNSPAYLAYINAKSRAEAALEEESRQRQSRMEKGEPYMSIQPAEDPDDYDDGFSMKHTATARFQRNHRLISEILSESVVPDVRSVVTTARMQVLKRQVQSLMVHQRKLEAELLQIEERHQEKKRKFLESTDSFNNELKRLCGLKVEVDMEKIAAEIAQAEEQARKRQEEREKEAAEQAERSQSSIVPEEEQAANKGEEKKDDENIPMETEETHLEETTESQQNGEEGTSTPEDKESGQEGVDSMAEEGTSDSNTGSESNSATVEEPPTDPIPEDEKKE
UniProt P17096: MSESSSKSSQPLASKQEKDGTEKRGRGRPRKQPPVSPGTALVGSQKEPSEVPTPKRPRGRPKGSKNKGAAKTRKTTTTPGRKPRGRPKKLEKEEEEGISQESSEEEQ
UniProt Q09028: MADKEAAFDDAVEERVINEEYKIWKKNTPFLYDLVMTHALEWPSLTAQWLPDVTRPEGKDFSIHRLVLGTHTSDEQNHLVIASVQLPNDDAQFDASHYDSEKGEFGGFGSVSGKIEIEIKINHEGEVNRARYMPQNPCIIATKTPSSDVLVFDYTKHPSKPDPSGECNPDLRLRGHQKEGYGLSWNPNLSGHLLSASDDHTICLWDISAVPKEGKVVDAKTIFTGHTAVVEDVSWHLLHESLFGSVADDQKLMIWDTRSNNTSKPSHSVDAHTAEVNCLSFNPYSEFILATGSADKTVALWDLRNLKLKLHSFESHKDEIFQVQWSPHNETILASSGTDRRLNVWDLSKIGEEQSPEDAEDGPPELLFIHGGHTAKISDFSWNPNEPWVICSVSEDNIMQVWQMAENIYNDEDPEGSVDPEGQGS
UniProt Q92785: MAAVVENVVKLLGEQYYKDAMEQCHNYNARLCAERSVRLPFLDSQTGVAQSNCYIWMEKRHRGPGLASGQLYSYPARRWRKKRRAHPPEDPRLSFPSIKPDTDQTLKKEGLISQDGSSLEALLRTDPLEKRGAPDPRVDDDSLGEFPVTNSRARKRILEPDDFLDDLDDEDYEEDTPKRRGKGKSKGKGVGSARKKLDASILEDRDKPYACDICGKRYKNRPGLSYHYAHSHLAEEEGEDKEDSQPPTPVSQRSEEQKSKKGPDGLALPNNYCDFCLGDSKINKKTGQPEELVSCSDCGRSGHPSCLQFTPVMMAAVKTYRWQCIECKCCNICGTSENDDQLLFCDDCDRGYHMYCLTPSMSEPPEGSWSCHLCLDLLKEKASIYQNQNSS
UniProt P09874: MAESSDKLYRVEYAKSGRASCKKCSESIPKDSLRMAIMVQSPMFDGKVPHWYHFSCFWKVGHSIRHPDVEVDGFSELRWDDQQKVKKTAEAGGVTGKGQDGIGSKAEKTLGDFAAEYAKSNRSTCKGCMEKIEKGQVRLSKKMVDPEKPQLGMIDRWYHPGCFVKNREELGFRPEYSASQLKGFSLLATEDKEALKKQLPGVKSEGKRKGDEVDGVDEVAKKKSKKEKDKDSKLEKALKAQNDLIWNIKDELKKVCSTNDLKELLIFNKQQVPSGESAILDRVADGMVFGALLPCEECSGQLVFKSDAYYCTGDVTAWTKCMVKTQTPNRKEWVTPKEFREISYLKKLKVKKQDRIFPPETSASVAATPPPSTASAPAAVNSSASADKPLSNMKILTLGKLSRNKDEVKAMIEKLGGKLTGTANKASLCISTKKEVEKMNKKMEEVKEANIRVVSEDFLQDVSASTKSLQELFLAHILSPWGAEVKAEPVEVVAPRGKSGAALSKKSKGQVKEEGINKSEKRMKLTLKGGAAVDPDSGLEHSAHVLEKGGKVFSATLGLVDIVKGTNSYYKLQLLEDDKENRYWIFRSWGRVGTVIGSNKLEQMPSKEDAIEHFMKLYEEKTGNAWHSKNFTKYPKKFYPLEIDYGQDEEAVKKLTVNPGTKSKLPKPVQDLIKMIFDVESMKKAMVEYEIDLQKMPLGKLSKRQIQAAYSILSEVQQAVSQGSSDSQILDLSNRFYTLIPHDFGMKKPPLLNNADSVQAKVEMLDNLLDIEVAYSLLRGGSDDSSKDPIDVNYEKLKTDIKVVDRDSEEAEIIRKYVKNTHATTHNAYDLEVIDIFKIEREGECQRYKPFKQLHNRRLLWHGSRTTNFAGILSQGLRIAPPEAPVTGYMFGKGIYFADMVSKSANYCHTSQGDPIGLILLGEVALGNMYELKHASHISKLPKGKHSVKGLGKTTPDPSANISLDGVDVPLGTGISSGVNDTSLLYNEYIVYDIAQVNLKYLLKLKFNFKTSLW
UniProt Q8TAQ2: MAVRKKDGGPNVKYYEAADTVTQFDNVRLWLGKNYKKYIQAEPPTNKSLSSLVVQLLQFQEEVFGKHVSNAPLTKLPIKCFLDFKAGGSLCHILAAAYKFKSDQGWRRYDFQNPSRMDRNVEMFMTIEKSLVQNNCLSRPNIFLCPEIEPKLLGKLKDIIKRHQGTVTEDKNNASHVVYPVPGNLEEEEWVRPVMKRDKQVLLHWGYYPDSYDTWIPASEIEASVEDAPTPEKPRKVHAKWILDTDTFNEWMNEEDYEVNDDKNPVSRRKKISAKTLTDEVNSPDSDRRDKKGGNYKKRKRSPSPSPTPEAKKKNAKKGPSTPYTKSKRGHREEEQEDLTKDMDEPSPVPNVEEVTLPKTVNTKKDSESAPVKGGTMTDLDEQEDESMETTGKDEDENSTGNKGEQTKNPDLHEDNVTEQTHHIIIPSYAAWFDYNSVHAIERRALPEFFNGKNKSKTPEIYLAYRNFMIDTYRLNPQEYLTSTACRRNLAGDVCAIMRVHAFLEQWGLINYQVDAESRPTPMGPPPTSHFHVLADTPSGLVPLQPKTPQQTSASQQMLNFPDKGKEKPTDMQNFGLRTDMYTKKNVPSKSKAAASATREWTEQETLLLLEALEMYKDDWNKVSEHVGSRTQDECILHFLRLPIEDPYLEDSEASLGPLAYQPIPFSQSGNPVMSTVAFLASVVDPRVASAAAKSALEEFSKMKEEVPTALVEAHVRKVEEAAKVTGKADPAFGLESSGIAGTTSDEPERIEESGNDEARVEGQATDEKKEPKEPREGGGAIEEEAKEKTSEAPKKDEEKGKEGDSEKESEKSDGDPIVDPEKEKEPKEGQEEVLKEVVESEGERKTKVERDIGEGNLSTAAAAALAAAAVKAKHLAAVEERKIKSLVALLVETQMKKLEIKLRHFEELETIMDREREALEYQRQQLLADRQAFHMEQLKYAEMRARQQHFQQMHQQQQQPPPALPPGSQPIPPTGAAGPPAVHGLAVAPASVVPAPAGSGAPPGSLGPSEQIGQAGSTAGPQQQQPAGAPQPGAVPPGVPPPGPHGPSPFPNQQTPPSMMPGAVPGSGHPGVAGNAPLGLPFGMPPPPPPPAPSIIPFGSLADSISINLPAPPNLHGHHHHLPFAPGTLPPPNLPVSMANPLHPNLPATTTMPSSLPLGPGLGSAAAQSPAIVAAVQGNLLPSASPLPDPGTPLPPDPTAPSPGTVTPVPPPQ

T1: recombinant purified His-tagged human BAF (H6BAF) dimers (human) (UniProt O75531)
T1 sequence: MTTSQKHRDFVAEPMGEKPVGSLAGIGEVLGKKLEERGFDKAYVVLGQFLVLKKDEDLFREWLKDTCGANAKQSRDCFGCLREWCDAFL


Target: T1, recombinant purified His-tagged human BAF (H6BAF) dimers (human)
Test: affinity purification with mass spectrometry; 30 µg H6BAF dimers on Ni-NTA beads, 500 µg pre-cleared HeLa nuclear lysate (benzonase-treated), 3 hrs 4°C; eluted with 0.3 M then 1 M NaCl; LC-MS/MS of eluates; Ni beads alone as control; only the target purified

Molecule	binding
TMPO/LAP2 (human (endogenous in HeLa))	binds
Small nuclear ribonucleoprotein D3 (from UniProt P62318 1-126)	binds
Keratin 5 (from UniProt P13647 1-590)	binds
Keratin 6A (from UniProt P02538 1-564)	binds
Aprataxin (from UniProt Q7Z2E3 1-356)	binds
LEDGF/p75 (from UniProt O75475 1-530)	binds
GATA zinc finger domain containing 2B (from UniProt Q8WXI9 1-593)	binds
Cytochrome C oxidase, Chain F (human (endogenous in HeLa))	binds
Euchromatic histone-lysine N-methyltransferase 2 isoform a (EHMT2) (from UniProt Q96KQ7 1-1210)	binds
histone deacetylase 1 (from UniProt Q13547 1-482)	binds
Type I keratin 16 (from UniProt P08779 1-473)	binds
Dpy-30-like protein (from UniProt Q9C005 1-99)	binds
Lamin B1 (from UniProt P20700 1-586)	binds
nuclear mitotic apparatus protein 1 (from UniProt Q14980 1-2115)	binds
Pyruvate kinase 3 (from UniProt P14618 1-531)	binds
SMARCE1/BAF57 (from UniProt Q969G3 1-411)	binds
Mediator of DNA damage checkpoint 1 (from UniProt Q14676 1-2089)	binds
High mobility group AT-hook 1 (from UniProt P17096 1-107)	binds
SMARCA2/BAF190 (from UniProt P51531 1-1590)	binds
Keratin 1 (from UniProt P04264 1-644)	binds
retinoblastoma binding protein 4 (from UniProt Q09028 1-425)	binds
Tektin 1 (from UniProt Q969V4 1-418)	binds
Desmoplakin I (DSP) (from UniProt P15924 1-2871)	binds
Chromodomain helicase DNA binding protein 4 (from UniProt Q14839 1-1912)	binds
Probable transcription factor requiem (from UniProt Q92785 1-391)	binds
ATP synthase F0 complex subunit F6, H+ transporting (protein, UniProt P18859 33-108) NKELDPIQKLFVDKIREYKSKRQTSGGPVDASSEYQQELERELFKLKQMFGNADMNTFPTFKFEDPKFEVIEKPQA	binds

Next, values leading:

binding	Molecule
binds	Damage-specific DNA binding protein 1 (from UniProt Q16531 1-1140)
binds	Chromatin-specific transcription elongation factor large subunit (from UniProt Q9Y5B9 1-1047)
binds	Filamin alpha (from UniProt P21333 1-2647)
binds	actin-like 6A/BAF53a (from UniProt O96019 1-429)
binds	structure specific recognition protein 1 (from UniProt Q08945 1-709)
binds	XP_573984 (human (endogenous in HeLa))
binds	poly(ADP-ribose) polymerase 1 (from UniProt P09874 1-1014)
binds	B-cell CLL/lymphoma 7 protein family member C (from UniProt Q8WUZ0 1-217)
binds	HP1 alpha/CBX5 (from UniProt P45973 1-191)
binds	LOC690956 (human (endogenous in HeLa))
binds	RECQL/RecQ1 (from UniProt P46063 1-649)
binds	HP1 gamma/CBX3 (from UniProt Q13185 1-183)
binds	SMARCC2/BAF170 (from UniProt Q8TAQ2 1-1214)
binds	Damage-specific DNA binding protein 2 (from UniProt Q92466 1-427)
binds	HP1 beta/CBX1 (from UniProt P83916 1-185)
binds	Splicing factor arg/ser rich 10 (protein, UniProt P62995 1-288) MSDSGEQNYGERESRSASRSGSAHGSGKSARHTPARSRSKEDSRRSRSKSRSRSESRSRSRRSSRRHYTRSRSRSRSHRRSRSRSYSRDYRRRHSHSHSPMSTRRRHVGNRANPDPNCCLGVFGLSLYTTERDLREVFSKYGPIADVSIVYDQQSRRSRGFAFVYFENVDDAKEAKERANGMELDGRRIRVDFSITKRPHTPTPGIYMGRPTYGSSRRRDYYDRGYDRGYDDRDYYSRSYRGGGGGGGGWRAAQDRDQIYRRRSPSPYYSRGGYRSRSRSRSYSPRRY
binds	ACIN1 (apoptotic chromatin condensation inducer 1) homolog (protein, UniProt Q9UKV3 1-1341) MWRRKHPRTSGGTRGVLSGNRGVEYGSGRGHLGTFEGRWRKLPKMPEAVGTDPSTSRKMAELEEVTLDGKPLQALRVTDLKAALEQRGLAKSGQKSALVKRLKGALMLENLQKHSTPHAAFQPNSQIGEEMSQNSFIKQYLEKQQELLRQRLEREAREAAELEEASAESEDEMIHPEGVASLLPPDFQSSLERPELELSRHSPRKSSSISEEKGDSDDEKPRKGERRSSRVRQARAAKLSEGSQPAEEEEDQETPSRNLRVRADRNLKTEEEEEEEEEEEEDDEEEEGDDEGQKSREAPILKEFKEEGEEIPRVKPEEMMDERPKTRSQEQEVLERGGRFTRSQEEARKSHLARQQQEKEMKTTSPLEEEEREIKSSQGLKEKSKSPSPPRLTEDRKKASLVALPEQTASEEETPPPLLTKEASSPPPHPQLHSEEEIEPMEGPAPAVLIQLSPPNTDADTRELLVSQHTVQLVGGLSPLSSPSDTKAESPAEKVPEESVLPLVQKSTLADYSAQKDLEPESDRSAQPLPLKIEELALAKGITEECLKQPSLEQKEGRRASHTLLPSHRLKQSADSSSSRSSSSSSSSSRSRSRSPDSSGSRSHSPLRSKQRDVAQARTHANPRGRPKMGSRSTSESRSRSRSRSRSASSNSRKSLSPGVSRDSSTSYTETKDPSSGQEVATPPVPQLQVCEPKERTSTSSSSVQARRLSQPESAEKHVTQRLQPERGSPKKCEAEEAEPPAATQPQTSETQTSHLPESERIHHTVEEKEEVTMDTSENRPENDVPEPPMPIADQVSNDDRPEGSVEDEEKKESSLPKSFKRKISVVSATKGVPAGNSDTEGGQPGRKRRWGASTATTQKKPSISITTESLKSLIPDIKPLAGQEAVVDLHADDSRISEDETERNGDDGTHDKGLKICRTVTQVVPAEGQENGQREEEEEEKEPEAEPPVPPQVSVEVALPPPAEHEVKKVTLGDTLTRRSISQQKSGVSITIDDPVRTAQVPSPPRGKISNIVHISNLVRPFTLGQLKELLGRTGTLVEEAFWIDKIKSHCFVTYSTVEEAVATRTALHGVKWPQSNPKFLCADYAEQDELDYHRGLLVDRPSETKTEEQGIPRPLHPPPPPPVQPPQHPRAEQREQERAVREQWAEREREMERRERTRSEREWDRDKVREGPRSRSRSRDRRRKERAKSKEKKSEKKEKAQEEPPAKLLDDLFRKTKAAPCIYWLPLTDSQIVQKEAERAERAKEREKRRKEQEEEEQKEREKEAERERNRQLEREKRREHSRERDRERERERERDRGDRDRDRERDRERGRERDRRDTKRHSRSRSRSTPVRDRGGRR
binds	Limbin (protein, UniProt Q86UK5 27-1308) GRGCLGASSRPRWRPLGAQPPRDPQVAPRSGPGLRIPPGRSGAGPESSTQDLPCMIWPKVECCHFKTAVEAPLGMKLDKKMEVFIPLSTSAASSGPWAHSLFAFIPSWPKKNLFKRESPITHRLYGDISREVQGTSENGVIFQKCALVSGSSEAQTARIWLLVNNTKTTSSANLSELLLLDSIAGLTIWDSVGNRTSEGFQAFSKKFLQVGDAFAVSYAATLQAGDLGNGESLKLPAQLTFQSSSRNRTQLKVLFSITAEENVTVLPHHGLHAAGFFIAFLLSLVLTWAALFLMVRYQCLKGNMLTRHRVWQYESKLEPLPFTSADGVNEDLSLNDQMIDILSSEDPGSMLQALEELEIATLNRADADLEACRTQISKDIIALLLKNLTSSGHLSPQVERKMSAVFKKQFLLLENEIQEEYDRKMVALTAECDLETRKKMENQYQREMMAMEEAEELLKRAGERSAVECSNLLRTLHGLEQEHLRKSLALQQEEDFAKAHRQLAVFQRNELHSIFFTQIKSAIFKGELKPEAAKMLLQNYSKIQENVEELMDFFQASKRYHLSKRFGHREYLVQNLQSSETRVQGLLSTAAAQLTHLIQKHERAGYLDEDQMEMLLERAQTEVFSIKQKLDNDLKQEKKKLHQKLITKRRRELLQKHREQRREQASVGEAFRTVEDAGQYLHQKRSLMEEHGATLEELQERLDQAALDDLRTLTLSLFEKATDELRRLQNSAMTQELLKRGVPWLFLQQILEEHGKEMAARAEQLEGEERDRDQEGVQSVRQRLKDDAPEAVTEEQAELRRWEHLIFMKLCSSVFSLSEEELLRMRQEVHGCFAQMDRSLALPKIRARVLLQQFQTAWREAEFVKLDQAVAAPELQQQSKVRKSRSKSKSKGELLKKCIEDKIHLCEEQASEDLVEKVRGELLRERVQRMEAQEGGFAQSLVALQFQKASRVTETLSAYTALLSIQDLLLEELSASEMLTKSACTQILESHSRELQELERKLEDQLVQQEAAQQQQALASWQQWVADGPGILNEPGEVDSERQVSTVLHQALSKSQTLLEQHQQCLREEQQNSVVLEDLLENMEADTFATLCSQELRLASYLARMAMVPGATLRRLLSVVLPTASQPQLLALLDSATERHVDHAAESDGGAEQADVGRRRKHQSWWQALDGKLRGDLISRGLEKMLWARKRKQSILKKTCLPLRERMIFSGKGSWPHLSLEPIGELAPVPIVGAETIDLLNTGEKLFIFRNPKEPEISLHVPPRKKKNFLNAKKAMRALGMD
